Taken from: PubChem BioAssay AID1259254 (NCATS, 2017)
This is a random part of about 59,000 reagents tested. About 1,550 of all reagents (2.6%) count as active. 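G2 share is only a proxy for re-replication; each gene was hit by three separate siRNAs, and active genes were retested.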 A number with no mark means an inactive call. The numbers tell different reagents against one gene apart. Not all columns of the deposit are shown. Not given: the amount of reagent.

- Purpose: 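Finding genes that stop cells copying their DNA twice in one cycle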 (primary screen)
- Cell system: human HCT116 colorectal cancer cells
- Reagent: single siRNA against human genes
- Duration: 3 days
- Measurement: 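Imaged Hoechst DNA stain sorts each cell into a cycle phase by DNA amount; per plate, G2 fraction set to 0% for non-targeting and 100% for GMNN siRNA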
- Reading the numbers: G2 robust z-score and G2 cells, % of GMNN control: higher = more G2 cells, more excess DNA replication
- Hit rule: 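An siRNA counts as active if its G2 robust z-score lies at least 5 MADs above the screen median; here such calls match roughly 38% of GMNN control or more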

For NKIRAS2 #1, the entry reads G2 robust z-score -0.849; G2 cells, % of GMNN control -3.01.
Against NKIRAS2 #2 the deposit lists G2 robust z-score -0.934; G2 cells, % of GMNN control -3.6.
Knock-down of NKIRAS2 #3 resulted in: G2 robust z-score 0.695; G2 cells, % of GMNN control 7.86.
For GABARAP #1, the entry reads G2 robust z-score 0.0449; G2 cells, % of GMNN control 3.28.
Against GABARAP #2, the values are G2 robust z-score -1.45; G2 cells, % of GMNN control -7.21.
GABARAP #3 gave G2 robust z-score -0.581; G2 cells, % of GMNN control -1.12.
Against NDUFA12 #1, the values are G2 robust z-score 2.58; G2 cells, % of GMNN control 21.1.
NDUFA12 #2 scored G2 robust z-score 0.955; G2 cells, % of GMNN control 9.68.
For NDUFA12 #3, the values are G2 robust z-score 1.68; G2 cells, % of GMNN control 14.8.
Knock-down of SLC43A1 #1 gave: G2 robust z-score 0.5; G2 cells, % of GMNN control 6.49.
SLC43A1 #2 gave G2 robust z-score 0.787; G2 cells, % of GMNN control 8.5.
For SLC43A1 #3, the values are G2 robust z-score 0.212; G2 cells, % of GMNN control 4.46.
Against OCRL #1, the values are G2 robust z-score 0.308; G2 cells, % of GMNN control 5.13.
Depletion of OCRL #2 came out at: G2 robust z-score -0.503; G2 cells, % of GMNN control -0.571.
Knock-down of OCRL #3 gave: G2 robust z-score 1.44; G2 cells, % of GMNN control 13.1.

2 successive entries from above, for reference:
NDUFA12 #1: G2 robust z-score = 2.58; G2 cells, % of GMNN control = 21.1
NDUFA12 #2: G2 robust z-score = 0.955; G2 cells, % of GMNN control = 9.68

The listing continues.
NUDT13 #1 scored G2 robust z-score -1.46; G2 cells, % of GMNN control -7.32.
NUDT13 #2 scored G2 robust z-score -1.33; G2 cells, % of GMNN control -6.39.
Knock-down of NUDT13 #3 resulted in: G2 robust z-score 0.591; G2 cells, % of GMNN control 7.12.
DDX54 #1 showed G2 robust z-score 0.878; G2 cells, % of GMNN control 9.15.
After knock-down of DDX54 #2 the results were G2 robust z-score 0.432; G2 cells, % of GMNN control 6.
DDX54 #3 scored G2 robust z-score -0.278; G2 cells, % of GMNN control 1.01.
Against MUC2 #1, the entry reads G2 robust z-score 0.277; G2 cells, % of GMNN control 4.92.
MUC2 #2 gave G2 robust z-score 1.26; G2 cells, % of GMNN control 11.9.
MUC2 #3 scored G2 robust z-score 1.17; G2 cells, % of GMNN control 11.2.
